Amino acid sequences for entries named in this document (tags omitted).
UniProt Q15286: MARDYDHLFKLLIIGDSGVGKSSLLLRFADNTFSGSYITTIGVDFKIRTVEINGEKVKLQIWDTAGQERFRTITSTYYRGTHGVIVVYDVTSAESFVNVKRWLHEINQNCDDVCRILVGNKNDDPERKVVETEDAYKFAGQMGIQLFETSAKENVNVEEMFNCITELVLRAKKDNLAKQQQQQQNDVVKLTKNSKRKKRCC

In PMC5512060:

Biological target: Rab35-WT–GST (UniProt Q15286)
Experiment: affinity purification with mass spectrometry; Rab35–GST or GST on glutathione-Sepharose beads incubated with HUVEC lysates with 100 uM GTPγS, 2 h, 4 °C; eluted with 5 mM GDP, 20 mM EDTA, 1.5 M NaCl; silver-stained bands identified by mass spectrometry; only the target purified

binding: binds
B1: ACAP2 (endogenous, HUVEC) (protein, UniProt Q15057 1-778)
chain: MKMTVDFEECLKDSPRFRAALEEVEGDVAELELKLDKLVKLCIAMIDTGKAFCVANKQFMNGIRDLAQYSSNDAVVETSLTKFSDSLQEMINFHTILFDQTQRSIKAQLQNFVKEDLRKFKDAKKQFEKVSEEKENALVKNAQVQRNKQHEVEEATNILTATRKCFRHIALDYVLQINVLQSKRRSEILKSMLSFMYAHLAFFHQGYDLFSELGPYMKDLGAQLDRLVVDAAKEKREMEQKHSTIQQKDFSSDDSKLEYNVDAANGIVMEGYLFKRASNAFKTWNRRWFSIQNNQLVYQKKFKDNPTVVVEDLRLCTVKHCEDIERRFCFEVVSPTKSCMLQADSEKLRQAWIKAVQTSIATAYREKGDESEKLDKKSSPSTGSLDSGNESKEKLLKGESALQRVQCIPGNASCCDCGLADPRWASINLGITLCIECSGIHRSLGVHFSKVRSLTLDTWEPELLKLMCELGNDVINRVYEANVEKMGIKKPQPGQRQEKEAYIRAKYVERKFVDKYSISLSPPEQQKKFVSKSSEEKRLSISKFGPGDQVRASAQSSVRSNDSGIQQSSDDGRESLPSTVSANSLYEPEGERQDSSMFLDSKHLNPGLQLYRASYEKNLPKMAEALAHGADVNWANSEENKATPLIQAVLGGSLVTCEFLLQNGANVNQRDVQGRGPLHHATVLGHTGQVCLFLKRGANQHATDEEGKDPLSIAVEAANADIVTLLRLARMNEEMRESEGLYGQPGDETYQDIFRDFSQMASNNPEKLNRFQQDSQKF

Results are given in words; binding and its absence hold for the method and conditions named. In cells and extracts the contact can be indirect. These calls come from enrichment with a bait or labelling near it, and not all partners need be listed.
